Reference: PubChem BioAssay AID1053208 (Peter MacCallum Cancer Centre, 2014)
Purpose: 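Find knock-downs that sensitise mouse osteosarcoma cells to doxorubicin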 (primary screen). Cells: mouse osteosarcoma cells, early-passage culture from an engineered mouse model of fibroblastic bone tumour. Reagent: siRNA pool against mouse genes, 40 nM. Timing: about 120 h (48 h before drug, then 72 h with drug). Challenge: doxorubicin 100 nM for 72 h, roughly 30-40% inhibitory dose. Measurement: 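Luminescent ATP signal taken as viability with or without 100 nM doxorubicin for 72 h; mean of two wells set against non-targeting siRNA and turned into robust z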. Direction: viability z-score with doxorubicin: higher = more viable cells under doxorubicin; viability z-score without drug: higher = more viable cells with knock-down alone. Hit rule: 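Called active if knock-down leaves viability unchanged without drug (z within -2 to 2) but lowers it with doxorubicin (z at or under -2)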.
The whole screen tested about 17,000 reagents; below is an unselected part. 788 of them (4.7%) count as active. 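Calls rest on z-score classes alone; an extra cut-off of viability at most 70% of control was not applied to them.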 Unmarked entries are inactive. Further read-outs or replicates are left out here.

Or5b21 [SID152310781]: combined z-score class = no change with or without drug; viability z-score with doxorubicin = -0.79; viability z-score without drug = -0.34
Vmn1r185 [SID152300061]: combined z-score class = no change with or without drug; viability z-score with doxorubicin = 0; viability z-score without drug = 0.17
Osgin2 [SID152293298]: combined z-score class = no change with or without drug; viability z-score with doxorubicin = 1.01; viability z-score without drug = 1.18
Clstn3 [SID152291067]: combined z-score class = no change with or without drug; viability z-score with doxorubicin = 0; viability z-score without drug = 0.51
Fgd3 [SID152312275]: combined z-score class = no change with or without drug; viability z-score with doxorubicin = 0.67; viability z-score without drug = 1.01
Tac2 [SID152305276]: combined z-score class = no change with or without drug; viability z-score with doxorubicin = 0.22; viability z-score without drug = -0.34
Trim26 [SID152327822]: combined z-score class = no change with or without drug; viability z-score with doxorubicin = 0.67; viability z-score without drug = 0.84
Neto1 [SID152264987]: combined z-score class = no change with or without drug; viability z-score with doxorubicin = 0.9; viability z-score without drug = -0.84
Fancm [SID152280199]: combined z-score class = no change with or without drug; viability z-score with doxorubicin = 0; viability z-score without drug = 0.17
Or2ad1 [SID152290759]: combined z-score class = no change with or without drug; viability z-score with doxorubicin = -1.12; viability z-score without drug = -1.85
Tcerg1 [SID152295550]: combined z-score class = no change with or without drug; viability z-score with doxorubicin = 0.56; viability z-score without drug = 0.67
Bmp8a [SID152308375]: combined z-score class = no change with or without drug; viability z-score with doxorubicin = 0.11; viability z-score without drug = -1.01
Slc10a4 [SID152270938]: combined z-score class = no change with or without drug; viability z-score with doxorubicin = -0.45; viability z-score without drug = -1.85
Myb [SID152282826]: combined z-score class = no change with or without drug; viability z-score with doxorubicin = 1.24; viability z-score without drug = -0.17
Atxn7l2 [SID152290778]: combined z-score class = no change with or without drug; viability z-score with doxorubicin = 0.22; viability z-score without drug = 1.18
Srp19 [SID152336577]: combined z-score class = low cell count without drug only; viability z-score with doxorubicin = -1.35; viability z-score without drug = -2.36
Ywhah [SID152284014]: combined z-score class = no change with or without drug; viability z-score with doxorubicin = -0.22; viability z-score without drug = 0.84
Dbp [SID152303488]: combined z-score class = no change with or without drug; viability z-score with doxorubicin = 0.9; viability z-score without drug = 0.51
Myoz2 [SID152265885]: combined z-score class = no change with or without drug; viability z-score with doxorubicin = 0.45; viability z-score without drug = 0.84

Just “viability z-score without drug” (2 entries from above):
Clstn3 [SID152291067] = 0.51
Fgd3 [SID152312275] = 1.01
